From article PMC7819943, “Rice protein-binding microarrays: a tool to detect cis-acting elements near promoter regions in rice”
Some of the results follow.

By UniProt entry, the sequences of proteins in these tests, tags left out.
UniProt Q0JBA9, entry or part of it: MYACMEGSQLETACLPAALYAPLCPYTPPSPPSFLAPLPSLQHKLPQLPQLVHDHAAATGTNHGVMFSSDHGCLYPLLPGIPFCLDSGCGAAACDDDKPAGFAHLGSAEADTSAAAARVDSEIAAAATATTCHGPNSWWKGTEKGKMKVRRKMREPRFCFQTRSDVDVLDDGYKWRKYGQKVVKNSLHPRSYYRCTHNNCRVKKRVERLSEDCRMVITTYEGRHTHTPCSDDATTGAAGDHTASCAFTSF

Biological target: OsWRKY34 (Oryza sativa, UniProt Q0JBA9 1-250)
Assay: protein-binding microarray (RPBM); PBS, 2% BSA, 51.3 ng/ul salmon testes DNA, 50 uM zinc acetate, 200 nM TF, 25 C, 1 h; high values mean tight binding
Conditions: protein: recombinant; tags: N-terminal polyhistidine and DsRed monomer fusion (pET32a); label: CyDye5-dUTP incorporated in the synthesized complementary strand; 3' TTTTT single-stranded linker to array surface; dsDNA, one strand shown
Outline: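 For the binding signal, per-feature fluorescence intensity was read in arbitrary units on an Axon 4000B scanner. Before scanning, a 2% BSA-blocked custom Agilent array made double-stranded with Cy5-dUTP was washed after 1 h at 25 °C with 200 nM protein and 50 µM zinc acetate. The proteins were Ni–NTA-purified transcription factors with N-terminal polyhistidine and DsRed fusions, expressed in E. coli BL21-CodonPlus.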

Sequence	binding signal
GTTTGCCCGTCTAATTTTTGTTTGTTGCGTCAGACGTCTACGGAGTCACCTAGTGCAG	8780 fluorescence intensity (a.u.)
CCGCTCCTCTCCTTTCCGCCGCCGCCACCGCGCGCTCTTCCGGAGTCACCTAGTGCAG	9940 fluorescence intensity (a.u.)
AGGTTGTTCTTCTTCGACATCTTCCTCGCCGCCAACCGCCCGGAGTCACCTAGTGCAG	13100 fluorescence intensity (a.u.)
AAAAAGCTTGCAAGTCTAAGTCTTTTTTTTTTTTGCATCACGGAGTCACCTAGTGCAG	9290 fluorescence intensity (a.u.)
CTAATCTACCCCAACATCCCAACTTTGACCGGGCCTCGATCGGAGTCACCTAGTGCAG	8160 fluorescence intensity (a.u.)
AATCATCTCTATACATGTATCGTCCTGATATTTCTGCACGCGGAGTCACCTAGTGCAG	9870 fluorescence intensity (a.u.)
TCCGCCGAGCCCTAGTTTCCGCCGCCGCCGCCGCCGCGCCCGGAGTCACCTAGTGCAG	9130 fluorescence intensity (a.u.)
TATGATTGACATGTGAGCTCCACCACTCTCGGGCCCACATCGGAGTCACCTAGTGCAG	8620 fluorescence intensity (a.u.)
CCGTTTGCTTCTAACTACCGCGGGGCCAACGAACTTTTCCCGGAGTCACCTAGTGCAG	8950 fluorescence intensity (a.u.)
TTCCACACAATGTGCTAAAAGTTTGACTTTTACACGTCCACGGAGTCACCTAGTGCAG	14500 fluorescence intensity (a.u.)
GGCTCCAAATCATCTGCCTTCATTGTCAGGCTTCAGTAATCGGAGTCACCTAGTGCAG	10400 fluorescence intensity (a.u.)
CATCCTCCTTCCGGAACCTTCTAGAAGGTTCTCCTCGTACCGGAGTCACCTAGTGCAG	8530 fluorescence intensity (a.u.)
TTCCCACAACTGATTTTTCACAGCCGCTTTTCCACAGCCCCGGAGTCACCTAGTGCAG	9090 fluorescence intensity (a.u.)
CTCCACATATTTTGGCGCTGACACTTCTATCGGCTTCTTTCGGAGTCACCTAGTGCAG	9980 fluorescence intensity (a.u.)
ATATATTAGAGCTCTTTAATTTGTTTCATGTTCAGTACGTCGGAGTCACCTAGTGCAG	10600 fluorescence intensity (a.u.)
AACATAACCAATTGACCTTGACCATATCATCAATCGAACCCGGAGTCACCTAGTGCAG	8760 fluorescence intensity (a.u.)
GACACATCGCGTACTATCTCTAGGCCTGAGCGTTTAGTAACGGAGTCACCTAGTGCAG	10300 fluorescence intensity (a.u.)
CCTTTTTGGGTCTCCATTTCCTTGTGTCCTCGAAGCATATCGGAGTCACCTAGTGCAG	9470 fluorescence intensity (a.u.)
TCAGGCATCCATTTCGACACTTGTAACACATGTTACTTTCCGGAGTCACCTAGTGCAG	10500 fluorescence intensity (a.u.)
ATCTCAGCCTCCGTTTTCATTAATGACCTAATCTCCAACTCGGAGTCACCTAGTGCAG	9340 fluorescence intensity (a.u.)
TCCCATTTGACCACCCCACCCACGCCGCTACGCGCCTTCCCGGAGTCACCTAGTGCAG	10100 fluorescence intensity (a.u.)

Sequence	binding signal
GCATAGTTGCATTCCCGACTTCTTATTGACTTTTTTTTTACGGAGTCACCTAGTGCAG	9530 fluorescence intensity (a.u.)
CCTGTCCGGTTCTTGTTCTGGTGCTGCTTTGCTCGACACCCGGAGTCACCTAGTGCAG	13800 fluorescence intensity (a.u.)
TTTGTTCGATTTGTTGAGATTTACGCTGTTGATTTTATGACGGAGTCACCTAGTGCAG	9550 fluorescence intensity (a.u.)
GGGCTTTGGTGGGCTTTAAAGAACTCGTAGTATAGCTATTCGGAGTCACCTAGTGCAG	8860 fluorescence intensity (a.u.)
AGTGCTTTAGGTTCGTTCAGCTCGTTTCACCCGTAAGCCTCGGAGTCACCTAGTGCAG	8360 fluorescence intensity (a.u.)
CTCCCTTTTCTTTTCTTCCTTTTTGGCCAAATTTTCAAATCGGAGTCACCTAGTGCAG	9060 fluorescence intensity (a.u.)
TCCTAACCTCTACTTATTTTTCATGTGCAGTTTTCCGAACCGGAGTCACCTAGTGCAG	12500 fluorescence intensity (a.u.)
GCCATTTCGCCGAGCGCCTTCCCGGCGAGCCCGCGCTCCACGGAGTCACCTAGTGCAG	8110 fluorescence intensity (a.u.)
TCTTGCTTTCATATTGGCCCACTTGAGAATTCTCACTCTTCGGAGTCACCTAGTGCAG	14200 fluorescence intensity (a.u.)
TCAGGGGTATTGAAGGGATTGAGTAAATTTTCAGGGGTATCGGAGTCACCTAGTGCAG	9330 fluorescence intensity (a.u.)
CTCCGATCCGGTTACTCTATCCATGTCGCACTCTTTCTCGCGGAGTCACCTAGTGCAG	11500 fluorescence intensity (a.u.)
ATAACATGGTCTTTATGAATGCGTTGGTTTTATGTTATACCGGAGTCACCTAGTGCAG	8070 fluorescence intensity (a.u.)
ACTATTCCACTCTCTAACCTTATCATCACTTCAATACACACGGAGTCACCTAGTGCAG	8030 fluorescence intensity (a.u.)
TGAGTTTTTACTTGCAACGTTTGACCACTCGTCTTATTCACGGAGTCACCTAGTGCAG	11400 fluorescence intensity (a.u.)
CGTCCACGGCCCATTTTTCATTCACGGGCCCGTACTGACACGGAGTCACCTAGTGCAG	8910 fluorescence intensity (a.u.)
GGTTGGGGAAGTATGTGCGCAAAAAACAAGGGATTTTTCTCGGAGTCACCTAGTGCAG	13700 fluorescence intensity (a.u.)
ACTTTTTTTTTTCTACTTGTTTGATATACCTGTCAGCATGCGGAGTCACCTAGTGCAG	9910 fluorescence intensity (a.u.)
AATACTCCCTCCGTTTCGAAATATTTGACGCCGTTGACTTCGGAGTCACCTAGTGCAG	12400 fluorescence intensity (a.u.)
GGCCCACCTGCTTTAACCGTCGTCTTCTCCATTTCCGTTTCGGAGTCACCTAGTGCAG	8620 fluorescence intensity (a.u.)
TTTTTTTCCAATGTCGCATGTGTGTGAAACATTTTTTACTCGGAGTCACCTAGTGCAG	8690 fluorescence intensity (a.u.)
GGTCCCACATTTGCTGAATTTTCTCGTTTCTTCCGACATACGGAGTCACCTAGTGCAG	9760 fluorescence intensity (a.u.)

Copied from the list.
Value for AATACTCCCTCCGTTTCGAAATATTTGACGCCGTTGACTTCGGAGTCACCTAGTGCAG under binding signal: 12400 fluorescence intensity (a.u.)
Value for CCTGTCCGGTTCTTGTTCTGGTGCTGCTTTGCTCGACACCCGGAGTCACCTAGTGCAG under binding signal: 13800 fluorescence intensity (a.u.)
